Results published in PubChem BioAssay AID256 (DTP/NCI, 2004).
The list does not hold the whole screen: it is rich in T/C values a quarter to a half above the control, in often repeated tests (any T/C) and in doses without a T/C. Other doses and runs of a compound stand elsewhere. T/C gives the treated animals as a percentage of the vehicle group. Some entries give survivors of the animals treated and no T/C: the source files T/C as zero there, which appears to mark a toxic dose or a test without result, not a measured value. Some survivor counts are full or nearly so, which does not show that the dose was tolerated: survival well below the control is almost never listed, so the zero probably covers shortened survival too. Survivors were counted at the toxicity check, usually on the fifth day, unless a day is given; later deaths do not show. Schedule codes are those of the source, read here as Q, the interval in days (D) or hours (H), X, the number of doses. Some entries hold several experiments; the results are listed from low to high. Some schedule codes hold Z or #, which are not explained here. Where survival is the endpoint, this PubChem deposit counts one and a half times the control or more as active, and values a quarter to a half above the control carry no call in these data; other NCI protocols may use other cut-offs.

Test system: CD2F1 mice, L1210 leukemia ip, survival T/C
Assay: NCI In Vivo Anticancer Drug Screen. Data for tumor model L1210 Leukemia (intraperitoneal) in CD2F1 (CDF1) mice
Details: higher T/C = longer survival
Summary of the method: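 Compound-dosed mice with transplantable tumor versus matched vehicle controls; endpoint ratio T/C reported.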

[1] = T/C endpoint: mean survival time, dose: 200.0 mg/kg/injection, schedule: Q04DX002 (ip), vehicle: saline with Tween-80
[2] = T/C endpoint: mean survival time, dose: 200.0 mg/kg/injection, schedule: Q04DX003 (ip), vehicle: saline with Tween-80
[3] = T/C endpoint: mean survival time, dose: 400.0 mg/kg/injection, schedule: Q04DX003 (ip), vehicle: saline with Tween-80
[4] = T/C endpoint: mean survival time, dose: 50.0 mg/kg/injection, schedule: Q01DX009 (ip), vehicle: saline with Tween-80
[5] = T/C endpoint: mean survival time, dose: 300.0 mg/kg/injection, schedule: Q01DX001 (ip), vehicle: other

SMILES: [Cl][Pt]([Cl])[Cl].[NH-]C1CN2CCC1CC2 (configuration not stated)
- T/C (T/C endpoint: mean survival time, dose: 10.0 mg/kg/injection, schedule: Q04DX003 (ip), vehicle: saline with Tween-80): 139 % of control
- T/C (T/C endpoint: mean survival time, dose: 20.0 mg/kg/injection, schedule: Q04DX003 (ip), vehicle: saline with Tween-80): 140 % of control
- T/C (T/C endpoint: mean survival time, dose: 40.0 mg/kg/injection, schedule: Q04DX003 (ip), vehicle: saline with Tween-80): 148 % of control

SMILES: CCCOC(=O)COc1ccc(F)cc1F
- survivor count [1]: 3 of 3

SMILES: NC(CCCCNC(c1ccccc1)(c1ccccc1)c1ccccc1)C(=O)O (configuration not stated)
- survivor count (T/C endpoint: mean survival time, dose: 200.0 mg/kg/injection, schedule: Q01DX009 (ip), vehicle: saline): 0 of 6
- survivor count (T/C endpoint: mean survival time, dose: 300.0 mg/kg/injection, schedule: Q01DX009 (ip), vehicle: saline): 0 of 6
- survivor count (T/C endpoint: mean survival time, dose: 400.0 mg/kg/injection, schedule: Q01DX009 (ip), vehicle: saline): 0 of 6

SMILES: CC[C@@]1(O)C(=O)OCc2c1cc1n(c2=O)Cc2cc3cc(OC)ccc3nc2-1
- T/C (T/C endpoint: mean survival time, dose: 1.56 mg/kg/injection, schedule: Q04DX003 (ip), vehicle: water): 143 % of control
- survivor count (T/C endpoint: mean survival time, dose: 6.25 mg/kg/injection, schedule: Q04DX003 (ip), vehicle: water): 6 of 6
- survivor count (T/C endpoint: mean survival time, dose: 12.5 mg/kg/injection, schedule: Q04DX003 (ip), vehicle: water): 4 of 6 and 6 of 6
- survivor count (T/C endpoint: mean survival time, dose: 25.0 mg/kg/injection, schedule: Q04DX003 (ip), vehicle: other): 5 of 6
- survivor count (T/C endpoint: mean survival time, dose: 25.0 mg/kg/injection, schedule: Q04DX003 (ip), vehicle: water): 3 of 6
- survivor count (T/C endpoint: mean survival time, dose: 50.0 mg/kg/injection, schedule: Q04DX003 (ip), vehicle: other): 1 of 6
- survivor count (T/C endpoint: mean survival time, dose: 100.0 mg/kg/injection, schedule: Q04DX003 (ip), vehicle: other): 0 of 6
- survivor count (T/C endpoint: mean survival time, dose: 200.0 mg/kg/injection, schedule: Q04DX003 (ip), vehicle: other): 0 of 6

SMILES: COc1cc([N+](=O)[O-])ccc1NC(=O)NCc1ccccc1
- survivor count [1]: 6 of 6

SMILES: CC1=CC(c2ccccc2)=CC(C)(C)C1 (tested in a mixture with another compound)
- survivor count [2]: 6 of 6
- survivor count [3]: 4 of 6

SMILES: CC1OC1c1ccc(-c2ccc(C3OC3C)cc2)cc1 (configuration not stated)
- survivor count (T/C endpoint: mean survival time, dose: 300.0 mg/kg/injection, schedule: Q01DX Z (ip), vehicle: saline): 0 of 6
- survivor count (T/C endpoint: mean survival time, dose: 600.0 mg/kg/injection, schedule: Q01DX Z (ip), vehicle: saline): 0 of 6
- survivor count (T/C endpoint: mean survival time, dose: 1200.0 mg/kg/injection, schedule: Q01DX Z (ip), vehicle: saline): 0 of 6

SMILES: O=C(CC(O)C(Cl)(Cl)Cl)c1ccccc1 (configuration not stated)
- survivor count [1]: 0 of 3

SMILES: O=[N+]([O-])c1cc(F)ccc1O
- survivor count [4]: 3 of 6
- survivor count (T/C endpoint: mean survival time, dose: 200.0 mg/kg/injection, schedule: Q01DX009 (ip), vehicle: saline with Tween-80): 3 of 6

SMILES: O=C(O)CCCC(=O)C1CCCCC1
- survivor count [3]: 5 of 6

SMILES: Nc1ccccc1Nc1ccccc1
- survivor count (T/C endpoint: mean survival time, dose: 400.0 mg/kg/injection, schedule: Q01DX001 (ip), vehicle: saline + alcohol): 3 of 6

SMILES: N/C(Cc1ccc(N)cc1)=N\O
- survivor count [2]: 0 of 6
- survivor count [3]: 0 of 6

SMILES: CC(=O)/C(N=O)=C(/C)O
- survivor count (T/C endpoint: mean survival time, dose: 100.0 mg/kg/injection, schedule: Q01DX001 (ip), vehicle: saline with Tween-80): 6 of 6

SMILES: O=NN(CCCl)C(=O)NC1CCN(Cc2ccccc2)CC1
- T/C (T/C endpoint: mean survival time, dose: 25.0 mg/kg/injection, schedule: Q01DX001 (ip), vehicle: saline with Tween-80): 148 % of control
- survivor count (T/C endpoint: mean survival time, dose: 200.0 mg/kg/injection, schedule: Q01DX001 (ip), vehicle: saline with Tween-80): 5 of 6

SMILES: CCCNc1ncc(C(=O)O)c(=O)[nH]1
- survivor count (T/C endpoint: mean survival time, dose: 25.0 mg/kg/injection, schedule: Q01DX009 (ip), vehicle: saline with Tween-80): 1 of 6
- survivor count [4]: 0 of 6
- survivor count (T/C endpoint: mean survival time, dose: 100.0 mg/kg/injection, schedule: Q01DX009 (ip), vehicle: saline with Tween-80): 1 of 6

SMILES: CC(=O)Nc1cc2c(ncn2C2OC(CO)C(O)C2O)c(Br)n1 (configuration not stated)
- survivor count (T/C endpoint: mean survival time, dose: 100.0 mg/kg/injection, schedule: Q01DX005 (ip), vehicle: water): 6 of 6

SMILES: COc1ccc(S(=O)[O-])cc1.C[c-]1[c-][c-][c-][c-]1.[C-]#[O+].[C-]#[O+].[Fe+6]
- survivor count (T/C endpoint: mean survival time, dose: 50.0 mg/kg/injection, schedule: Q04DX002 (ip), vehicle: other): 0 of 3
- survivor count (T/C endpoint: mean survival time, dose: 100.0 mg/kg/injection, schedule: Q04DX002 (ip), vehicle: other): 0 of 3
- survivor count (T/C endpoint: mean survival time, dose: 200.0 mg/kg/injection, schedule: Q04DX002 (ip), vehicle: other): 0 of 3

SMILES: CC1(C)CC(N2CCCOP2(=O)N(CCCl)CCCl)CC(C)(C)N1 (configuration not stated)
- survivor count (T/C endpoint: mean survival time, dose: 500.0 mg/kg/injection, schedule: Q01DX001 (ip), vehicle: water): 3 of 6

SMILES: C[CH2][Sn]([Cl])([CH2]C)[c]1cc[c]([Sn]([Cl])([CH2]C)[CH2]C)cc1
- survivor count (T/C endpoint: median survival time, dose: 0.25 mg/kg/injection, schedule: Q01DX005 (ip), vehicle: Klucel (hydroxypropylcellulose) (HPC)): 3 of 6
- survivor count (T/C endpoint: median survival time, dose: 0.5 mg/kg/injection, schedule: Q01DX005 (ip), vehicle: Klucel (hydroxypropylcellulose) (HPC)): 0 of 6
- survivor count (T/C endpoint: median survival time, dose: 1.0 mg/kg/injection, schedule: Q01DX005 (ip), vehicle: Klucel (hydroxypropylcellulose) (HPC)): 0 of 6
- survivor count (T/C endpoint: median survival time, dose: 240.0 micrograms/kg/injection, schedule: Q01DX005 (ip), vehicle: Klucel (hydroxypropylcellulose) (HPC)): 1 of 6

SMILES: Nc1nc(NC(c2ccc(Cl)cc2)c2ccc(Cl)cc2)c2[nH]cnc2n1
- survivor count [5]: 0 of 6

SMILES: Clc1cc2ccccc2c(Cl)n1
- survivor count (T/C endpoint: mean survival time, dose: 400.0 mg/kg/injection, schedule: Q01DX001 (ip), vehicle: saline with Tween-80): 3 of 6

SMILES: CCCc1ccc(C(C)=O)cc1
- survivor count (T/C endpoint: mean survival time, dose: 300.0 mg/kg/injection, schedule: Q04DX002 (ip), vehicle: saline with Tween-80): 1 of 3

SMILES: CCCCCCCCCCNC(=O)C[n+]1cccc(C(=O)NCc2ccccc2)c1
- survivor count (T/C endpoint: mean survival time, dose: 25.0 mg/kg/injection, schedule: Q01DX009 (ip), vehicle: saline sonified): 3 of 6
- survivor count (T/C endpoint: mean survival time, dose: 50.0 mg/kg/injection, schedule: Q01DX009 (ip), vehicle: saline sonified): 1 of 6
- survivor count (T/C endpoint: mean survival time, dose: 100.0 mg/kg/injection, schedule: Q04DX003 (ip), vehicle: saline with Tween-80): 6 of 6
- survivor count [2]: 0 of 6
- survivor count [3]: 0 of 6

SMILES: CN(C)[C-]=O.[C-]#[O+].[C-]#[O+].[Fe+6].[c-]1[c-][c-][cH-][c-]1
- survivor count [5]: 3 of 6

SMILES: Cc1cc2nc(Cc3ccccc3)[nH]c2cc1C
- survivor count [3]: 0 of 6

SMILES: O=NNc1cnccn1
- T/C (T/C endpoint: median survival time, dose: 17.0 mg/kg/injection, schedule: Q01DX009 (ip), vehicle: water, evaluated on day 30): 133 % of control
- T/C (T/C endpoint: median survival time, dose: 17.0 mg/kg/injection, schedule: Q01DX009 (ip), vehicle: water, evaluated on day 60): 145 % of control
- T/C (T/C endpoint: median survival time, dose: 24.0 mg/kg/injection, schedule: Q01DX009 (ip), vehicle: water): 129 % of control
- T/C (T/C endpoint: median survival time, dose: 25.0 mg/kg/injection, schedule: Q01DX009 (ip), vehicle: water, evaluated on day 22): 155 % of control
- T/C (T/C endpoint: median survival time, dose: 25.0 mg/kg/injection, schedule: Q01DX009 (ip), vehicle: water, evaluated on day 30): 136 and 163 % of control
- T/C (T/C endpoint: median survival time, dose: 25.0 mg/kg/injection, schedule: Q01DX009 (ip), vehicle: water, evaluated on day 60): 162 % of control
- T/C (T/C endpoint: median survival time, dose: 40.0 mg/kg/injection, schedule: Q01DX009 (ip), vehicle: water): 148 % of control
- T/C (T/C endpoint: median survival time, dose: 50.0 mg/kg/injection, schedule: Q01DX009 (ip), vehicle: water): 130 % of control
- T/C (T/C endpoint: median survival time, dose: 56.0 mg/kg/injection, schedule: Q01DX009 (ip), vehicle: water, evaluated on day 30): 127 % of control
- T/C (T/C endpoint: median survival time, dose: 56.0 mg/kg/injection, schedule: Q01DX009 (ip), vehicle: water, evaluated on day 60): 139 % of control

SMILES: NNC(=O)c1ccccc1O
- survivor count (T/C endpoint: mean survival time, dose: 100.0 mg/kg/injection, schedule: Q04DX003 (ip), vehicle: Klucel (hydroxypropylcellulose) (HPC)): 6 of 6
- survivor count (T/C endpoint: mean survival time, dose: 200.0 mg/kg/injection, schedule: Q04DX003 (ip), vehicle: Klucel (hydroxypropylcellulose) (HPC)): 6 of 6
- survivor count (T/C endpoint: mean survival time, dose: 400.0 mg/kg/injection, schedule: Q04DX003 (ip), vehicle: Klucel (hydroxypropylcellulose) (HPC)): 1 of 6

SMILES: Cc1ccc(C(=Nc2ccccc2)N=P(c2ccccc2)(c2ccccc2)c2ccccc2)cc1
- survivor count (T/C endpoint: median survival time, dose: 200.0 mg/kg/injection, schedule: Q01DX005 (ip), vehicle: saline with Tween-80): 2 of 6
